The list shows a part of the results.

Chains of the proteins cited; added tags and fusions are not shown. Lines headed by an entry give the natural chain unless they say otherwise; changes in a name come on top.
UniProt Q9NS56: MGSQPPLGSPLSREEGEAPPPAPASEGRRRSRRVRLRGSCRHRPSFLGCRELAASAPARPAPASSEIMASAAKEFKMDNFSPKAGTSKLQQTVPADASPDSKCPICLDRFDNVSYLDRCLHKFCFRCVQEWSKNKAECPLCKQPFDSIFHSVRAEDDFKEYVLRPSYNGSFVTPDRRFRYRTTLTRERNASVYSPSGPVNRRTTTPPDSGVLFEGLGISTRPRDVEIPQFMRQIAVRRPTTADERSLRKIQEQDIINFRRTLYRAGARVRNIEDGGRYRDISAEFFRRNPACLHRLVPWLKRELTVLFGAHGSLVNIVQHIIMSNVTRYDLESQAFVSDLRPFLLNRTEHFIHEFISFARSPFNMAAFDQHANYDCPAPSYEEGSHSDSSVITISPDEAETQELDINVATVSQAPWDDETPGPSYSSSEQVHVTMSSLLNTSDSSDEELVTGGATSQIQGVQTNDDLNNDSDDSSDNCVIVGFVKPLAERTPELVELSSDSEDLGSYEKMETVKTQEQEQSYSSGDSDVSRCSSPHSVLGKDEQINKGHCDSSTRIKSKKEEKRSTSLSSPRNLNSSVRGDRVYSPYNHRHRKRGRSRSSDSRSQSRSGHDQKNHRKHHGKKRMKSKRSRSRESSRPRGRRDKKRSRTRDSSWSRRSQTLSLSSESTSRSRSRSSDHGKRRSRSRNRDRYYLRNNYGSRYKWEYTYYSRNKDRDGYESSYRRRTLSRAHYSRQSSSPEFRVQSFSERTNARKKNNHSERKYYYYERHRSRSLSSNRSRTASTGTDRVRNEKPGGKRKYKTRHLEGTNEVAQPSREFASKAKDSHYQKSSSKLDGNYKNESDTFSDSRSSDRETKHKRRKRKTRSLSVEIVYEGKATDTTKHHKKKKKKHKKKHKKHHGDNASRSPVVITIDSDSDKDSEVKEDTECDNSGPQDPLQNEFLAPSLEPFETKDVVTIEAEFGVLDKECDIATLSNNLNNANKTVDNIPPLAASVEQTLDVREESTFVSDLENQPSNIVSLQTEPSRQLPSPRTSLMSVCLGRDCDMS
UniProt Q9Y5L0: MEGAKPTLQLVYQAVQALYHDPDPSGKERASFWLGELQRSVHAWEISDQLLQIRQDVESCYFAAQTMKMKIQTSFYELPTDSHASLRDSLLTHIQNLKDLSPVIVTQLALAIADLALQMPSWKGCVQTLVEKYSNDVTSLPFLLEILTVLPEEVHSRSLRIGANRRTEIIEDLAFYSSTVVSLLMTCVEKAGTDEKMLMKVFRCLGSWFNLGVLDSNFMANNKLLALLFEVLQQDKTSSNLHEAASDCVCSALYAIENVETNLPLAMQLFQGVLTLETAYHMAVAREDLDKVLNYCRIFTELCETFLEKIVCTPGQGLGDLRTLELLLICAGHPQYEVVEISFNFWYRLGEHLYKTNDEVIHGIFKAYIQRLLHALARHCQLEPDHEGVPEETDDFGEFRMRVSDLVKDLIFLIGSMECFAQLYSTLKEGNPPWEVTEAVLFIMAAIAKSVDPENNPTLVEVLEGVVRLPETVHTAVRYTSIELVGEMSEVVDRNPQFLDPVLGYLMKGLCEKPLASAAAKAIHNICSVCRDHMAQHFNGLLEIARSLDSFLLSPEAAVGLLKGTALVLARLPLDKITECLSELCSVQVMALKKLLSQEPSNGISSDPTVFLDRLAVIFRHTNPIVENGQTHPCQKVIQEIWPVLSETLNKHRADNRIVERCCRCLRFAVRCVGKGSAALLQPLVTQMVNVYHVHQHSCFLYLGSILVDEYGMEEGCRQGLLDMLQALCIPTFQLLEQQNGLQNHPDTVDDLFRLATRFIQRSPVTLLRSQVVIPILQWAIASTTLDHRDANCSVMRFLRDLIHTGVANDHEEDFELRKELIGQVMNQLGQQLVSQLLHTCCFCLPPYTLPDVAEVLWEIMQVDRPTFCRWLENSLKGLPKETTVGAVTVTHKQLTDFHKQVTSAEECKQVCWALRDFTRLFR
UniProt O95985: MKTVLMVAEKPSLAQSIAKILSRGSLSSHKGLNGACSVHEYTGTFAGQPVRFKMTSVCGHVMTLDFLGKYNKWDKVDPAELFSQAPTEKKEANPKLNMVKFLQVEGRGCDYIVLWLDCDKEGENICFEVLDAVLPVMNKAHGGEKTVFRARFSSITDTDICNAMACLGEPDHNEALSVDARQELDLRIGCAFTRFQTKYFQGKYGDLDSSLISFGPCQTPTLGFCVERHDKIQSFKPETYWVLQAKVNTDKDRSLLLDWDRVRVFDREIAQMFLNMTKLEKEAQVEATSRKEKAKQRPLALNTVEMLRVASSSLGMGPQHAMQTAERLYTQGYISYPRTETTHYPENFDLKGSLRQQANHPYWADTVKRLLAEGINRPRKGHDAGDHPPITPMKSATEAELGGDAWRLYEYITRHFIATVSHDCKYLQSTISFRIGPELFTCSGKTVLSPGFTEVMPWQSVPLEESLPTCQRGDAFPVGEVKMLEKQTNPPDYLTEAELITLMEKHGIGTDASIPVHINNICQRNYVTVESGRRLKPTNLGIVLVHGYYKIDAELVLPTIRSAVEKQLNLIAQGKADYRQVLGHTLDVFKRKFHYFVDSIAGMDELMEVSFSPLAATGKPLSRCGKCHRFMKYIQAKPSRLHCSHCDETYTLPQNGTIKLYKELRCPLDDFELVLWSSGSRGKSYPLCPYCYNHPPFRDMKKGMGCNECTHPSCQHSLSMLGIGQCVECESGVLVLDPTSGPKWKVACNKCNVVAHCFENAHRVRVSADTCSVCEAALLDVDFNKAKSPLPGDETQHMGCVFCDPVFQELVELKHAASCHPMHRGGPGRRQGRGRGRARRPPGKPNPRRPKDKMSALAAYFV
UniProt Q9Y4G6: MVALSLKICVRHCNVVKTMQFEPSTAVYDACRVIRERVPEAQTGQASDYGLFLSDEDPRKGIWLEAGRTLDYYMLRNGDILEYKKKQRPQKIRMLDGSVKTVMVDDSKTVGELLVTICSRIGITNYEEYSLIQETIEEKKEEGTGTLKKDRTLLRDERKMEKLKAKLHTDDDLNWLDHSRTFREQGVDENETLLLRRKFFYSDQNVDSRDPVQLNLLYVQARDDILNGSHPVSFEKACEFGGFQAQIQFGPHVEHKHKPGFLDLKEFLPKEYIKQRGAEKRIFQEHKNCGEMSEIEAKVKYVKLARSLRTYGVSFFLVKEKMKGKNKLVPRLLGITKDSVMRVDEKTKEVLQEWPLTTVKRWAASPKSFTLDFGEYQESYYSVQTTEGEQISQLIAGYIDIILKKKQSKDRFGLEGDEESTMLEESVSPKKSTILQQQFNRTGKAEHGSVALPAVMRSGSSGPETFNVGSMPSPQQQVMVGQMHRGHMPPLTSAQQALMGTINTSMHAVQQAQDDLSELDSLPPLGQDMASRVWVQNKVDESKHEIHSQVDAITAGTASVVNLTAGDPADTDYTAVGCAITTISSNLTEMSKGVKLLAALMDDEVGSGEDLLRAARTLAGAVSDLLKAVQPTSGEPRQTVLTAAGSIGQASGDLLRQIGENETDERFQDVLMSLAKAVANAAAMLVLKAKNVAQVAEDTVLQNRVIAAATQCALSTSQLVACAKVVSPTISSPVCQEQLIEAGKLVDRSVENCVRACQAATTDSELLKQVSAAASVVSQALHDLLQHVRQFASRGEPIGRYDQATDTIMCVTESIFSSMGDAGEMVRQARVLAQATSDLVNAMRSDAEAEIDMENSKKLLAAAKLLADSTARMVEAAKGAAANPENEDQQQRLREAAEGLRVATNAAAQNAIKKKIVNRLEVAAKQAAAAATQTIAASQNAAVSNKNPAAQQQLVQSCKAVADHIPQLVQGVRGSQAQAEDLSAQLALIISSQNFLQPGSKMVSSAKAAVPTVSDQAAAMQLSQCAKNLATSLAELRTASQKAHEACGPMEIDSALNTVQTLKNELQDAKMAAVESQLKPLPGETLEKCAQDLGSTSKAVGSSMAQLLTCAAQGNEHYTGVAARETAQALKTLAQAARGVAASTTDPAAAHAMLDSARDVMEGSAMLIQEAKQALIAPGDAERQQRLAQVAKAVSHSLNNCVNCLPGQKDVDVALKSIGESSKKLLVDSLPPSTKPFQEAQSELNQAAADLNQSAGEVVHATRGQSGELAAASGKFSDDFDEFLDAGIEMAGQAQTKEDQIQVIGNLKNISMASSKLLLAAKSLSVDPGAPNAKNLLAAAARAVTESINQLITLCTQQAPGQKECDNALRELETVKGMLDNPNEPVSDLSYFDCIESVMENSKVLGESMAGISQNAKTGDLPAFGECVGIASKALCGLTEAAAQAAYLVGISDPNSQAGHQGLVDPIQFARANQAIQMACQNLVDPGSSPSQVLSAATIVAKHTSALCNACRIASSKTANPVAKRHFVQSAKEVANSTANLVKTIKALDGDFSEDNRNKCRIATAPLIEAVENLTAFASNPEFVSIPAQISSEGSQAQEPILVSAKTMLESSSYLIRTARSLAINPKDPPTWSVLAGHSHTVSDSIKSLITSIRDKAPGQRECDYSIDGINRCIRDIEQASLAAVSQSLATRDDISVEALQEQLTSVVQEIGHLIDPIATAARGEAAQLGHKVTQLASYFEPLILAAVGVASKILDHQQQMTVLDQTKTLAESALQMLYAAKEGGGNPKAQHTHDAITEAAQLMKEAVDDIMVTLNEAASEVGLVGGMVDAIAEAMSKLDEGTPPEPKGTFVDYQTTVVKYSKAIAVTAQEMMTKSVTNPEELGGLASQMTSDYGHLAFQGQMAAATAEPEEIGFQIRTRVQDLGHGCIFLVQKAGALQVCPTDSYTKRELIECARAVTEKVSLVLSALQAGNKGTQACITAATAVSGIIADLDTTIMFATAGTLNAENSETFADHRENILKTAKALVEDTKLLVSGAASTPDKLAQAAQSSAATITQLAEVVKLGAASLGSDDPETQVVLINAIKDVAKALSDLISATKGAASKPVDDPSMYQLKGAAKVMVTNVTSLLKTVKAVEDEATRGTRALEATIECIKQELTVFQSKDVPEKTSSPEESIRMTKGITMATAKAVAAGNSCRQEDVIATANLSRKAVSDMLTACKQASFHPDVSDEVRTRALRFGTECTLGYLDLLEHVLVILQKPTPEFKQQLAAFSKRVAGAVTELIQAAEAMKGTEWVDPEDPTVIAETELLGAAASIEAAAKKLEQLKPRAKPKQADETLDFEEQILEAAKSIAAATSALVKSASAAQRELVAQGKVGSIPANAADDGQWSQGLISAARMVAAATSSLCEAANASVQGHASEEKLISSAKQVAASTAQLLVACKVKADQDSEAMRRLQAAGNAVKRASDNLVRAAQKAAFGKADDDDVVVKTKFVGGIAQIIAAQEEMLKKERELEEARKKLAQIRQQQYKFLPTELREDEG
UniProt Q9NV96: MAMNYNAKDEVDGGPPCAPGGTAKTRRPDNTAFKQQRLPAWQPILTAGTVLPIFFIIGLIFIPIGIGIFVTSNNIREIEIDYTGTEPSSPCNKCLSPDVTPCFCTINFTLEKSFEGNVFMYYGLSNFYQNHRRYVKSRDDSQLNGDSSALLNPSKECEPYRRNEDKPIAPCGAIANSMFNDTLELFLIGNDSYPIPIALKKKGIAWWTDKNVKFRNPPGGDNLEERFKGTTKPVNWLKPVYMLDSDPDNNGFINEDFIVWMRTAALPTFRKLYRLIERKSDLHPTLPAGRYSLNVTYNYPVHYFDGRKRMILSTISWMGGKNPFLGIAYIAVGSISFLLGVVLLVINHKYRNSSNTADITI
UniProt O60603, whole entry, looked up: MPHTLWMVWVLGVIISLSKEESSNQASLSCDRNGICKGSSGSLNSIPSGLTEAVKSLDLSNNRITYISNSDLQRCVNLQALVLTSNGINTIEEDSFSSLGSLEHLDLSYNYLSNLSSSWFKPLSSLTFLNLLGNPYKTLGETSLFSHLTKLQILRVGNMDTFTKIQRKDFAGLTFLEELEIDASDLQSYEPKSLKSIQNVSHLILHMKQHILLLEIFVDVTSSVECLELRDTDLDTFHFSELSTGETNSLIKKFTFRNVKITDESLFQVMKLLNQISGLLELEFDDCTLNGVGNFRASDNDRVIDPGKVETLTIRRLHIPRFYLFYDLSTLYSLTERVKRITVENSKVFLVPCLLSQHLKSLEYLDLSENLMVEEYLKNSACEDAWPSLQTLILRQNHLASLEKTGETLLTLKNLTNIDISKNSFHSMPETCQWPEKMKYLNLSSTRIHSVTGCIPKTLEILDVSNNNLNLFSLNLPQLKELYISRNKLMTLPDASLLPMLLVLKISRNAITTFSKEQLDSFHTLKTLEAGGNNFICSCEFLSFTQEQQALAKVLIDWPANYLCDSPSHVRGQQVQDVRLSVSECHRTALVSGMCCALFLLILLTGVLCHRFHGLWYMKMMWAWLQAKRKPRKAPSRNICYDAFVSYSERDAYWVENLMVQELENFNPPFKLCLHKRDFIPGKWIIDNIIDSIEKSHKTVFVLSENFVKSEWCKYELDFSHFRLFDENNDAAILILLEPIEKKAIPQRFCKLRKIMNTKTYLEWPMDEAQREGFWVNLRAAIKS

This note sets out measurements from the supplement of paper PMC12067093, “Discovery and optimisation of a covalent ligand for TRIM25 and its application to targeted protein ubiquitination” (Chemical Science, 2025).

Compound in this test: CC1Cc2ccccc2N1C(=O)C1CCCN(C1)C(=O)CCl (mixture of isomers) [TRIM25 ligand 11 (diastereomer mixture)]
The test can be described thus: probe-labelled cysteine peptide fold change vs DMSO (competition) (log2 fold change); higher = less target engagement (more negative = stronger competition). The note with it: THP-1, incubation time: 4 h.
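Also: competitive chemoproteomic profiling in live THP-1 cells with an iodoacetamide desthiobiotin (IA-DTB) probe, comparing probe-labelled peptide intensities in compound-treated cells against DMSO-treated controls.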

“TMEM87A_Q8NBN3_89_SADCYNEIYNFK (UniProt Q8NBN3)”: the “probe-labelled cysteine peptide fold change” value is, setting by setting: (10 µM) -0.0384; (50 µM) 0.0204.
The corresponding values for “TLN1_Q9Y490_1671_DKAPGQLECETAIAALNSCLR (UniProt Q9Y490)” are -0.0788 and -0.176.
The like results for “TOPORS_Q9NS56_550_GHCDSSTR (UniProt Q9NS56)” were, in that order, 0.107 and -0.426.
Take “TOR2A_Q5JU69_43_CTLGAFCECDFRPDLPGLECDLAQHLAGQHLAK (UniProt Q5JU69)”: the “probe-labelled cysteine peptide fold change” value by setting is: (10 µM) 0.195; (50 µM) 0.451.
The corresponding values for “TM9SF2_Q99805_56_KSDECK (UniProt Q99805)” are -0.0321 and -0.204.
The corresponding values for “TMEM173_Q86WV6_206_LYILLPLDCGVPDNLSMADPNIR (UniProt Q86WV6)” are -0.0611 and -0.043.
As for “TNPO3_Q9Y5L0_908_QVTSAEECK (UniProt Q9Y5L0)”, the “probe-labelled cysteine peptide fold change” value worked out at 0.047 (10 µM) and 0.0508 (50 µM).
The like results for “TOP3B_O95985_442_IGPELFTCSGK (UniProt O95985)” were, in that order, 0.00204 and 0.124.
The like results for “TLN2_Q9Y4G6_289_NCGEMSEIEAK (UniProt Q9Y4G6)” were, in that order, 0.213 and 0.0134.
As to “TMEM120A_Q9BXJ8_47_LQNNCTSSITR (UniProt Q9BXJ8)”, the “probe-labelled cysteine peptide fold change” value by setting is: (10 µM) -0.112; (50 µM) -0.0154.
The corresponding values for “TNKS1BP1_Q9C0C2_1296_NMAPGAVCSPGESK (UniProt Q9C0C2)” are 0.00736 and -0.401.
The like results for “TMEM141_Q96I45_86_CNNLWLFLETGQLPK (UniProt Q96I45)” were, in that order, 0.119 and 0.0737.
For the target “TNS3_Q68CZ2_1381_HYPVNSVIFCALDPQDR (UniProt Q68CZ2)”, the “probe-labelled cysteine peptide fold change” value is 0.12 (10 µM) and 0.192 (50 µM).
The corresponding values for “TMED3_Q9Y3Q3_101_GVYQFCFSNEFSTFSHK (UniProt Q9Y3Q3)” are 0.192 and 0.0996.
The like results for “TNPO2_O14787_805_LGYVCPQEVAPMLQQFIRPWCTSLR (UniProt O14787)” were, in that order, -0.219 and 0.17.
The like results for “TMEM30A_Q9NV96_17_DEVDGGPPCAPGGTAK (UniProt Q9NV96)” were, in that order, -0.00767 and 0.0338.
For the target “TPI1_P60174_104_IAVAAQNCYK (UniProt P60174)”, the “probe-labelled cysteine peptide fold change” value (10 µM) was -0.0506 and the “probe-labelled cysteine peptide fold change” value (50 µM) is -0.0513.
As for “TLN2_Q9Y4G6_2153_ALEATIECIK (UniProt Q9Y4G6)”, the “probe-labelled cysteine peptide fold change” value was -0.093 (10 µM) and 0.017 (50 µM).
The corresponding values for “TM9SF2_Q99805_164_SMLLNYQHHWIVDNMPVTWCYDVEDGQR (UniProt Q99805)” are -0.081 and -0.254.
With “TNPO1_Q92973_683_SNILTLMYQCMQDK (UniProt Q92973)”, the “probe-labelled cysteine peptide fold change” value by setting is: (10 µM) 0.0486; (50 µM) -0.108.
The like results for “TMEM9B_Q9NQ34_66+68_DCDCLHVVEPMPVR (UniProt Q9NQ34)” were, in that order, 0.267 and 0.152.
The like results for “TLR2_O60603_564_VLIDWPANYLCDSPSHVR (UniProt O60603)” were, in that order, 0.223 and 0.0228.
Consider “TMEM87B_Q96K49_139_NENLDCNSDSQVFPSLNNK (UniProt Q96K49)”, for which the “probe-labelled cysteine peptide fold change” value runs as follows: (10 µM) 0.185; (50 µM) -0.00696.
“TNPO3_Q9Y5L0_634_HTNPIVENGQTHPCQK (UniProt Q9Y5L0)”: the “probe-labelled cysteine peptide fold change” value by setting is: (10 µM) 0.0306; (50 µM) -0.0104.
The corresponding values for “TM9SF1_O15321_68_VGPYHNPQETYHYYQLPVCCPEK (UniProt O15321)” are 0.0232 and -0.197.
The like results for “TMPO_P42166_330_DIVENICGR (UniProt P42166)” were, in that order, -0.0447 and -0.0177.
The like results for “TM9SF4_Q92544_104_KCEVLCSQSNKPVTLTVEQSR (UniProt Q92544)” were, in that order, 0.0846 and -0.0345.
“TOP2A_P11388_1145_KDELCR (UniProt P11388)”: the “probe-labelled cysteine peptide fold change” value (10 µM) was -0.0248 and the “probe-labelled cysteine peptide fold change” value (50 µM) is -0.0548.
The like results for “TOP3B_O95985_36_GLNGACSVHEYTGTFAGQPVR (UniProt O95985)” were, in that order, 0.33 and 0.0672.
Take “TLR2_O60603_454_IHSVTGCIPK (UniProt O60603)”: the “probe-labelled cysteine peptide fold change” value worked out at 0.0287 (10 µM) and 0.00221 (50 µM).
The like results for “TOP3B_O95985_819_HAASCHPMHR (UniProt O95985)” were, in that order, 0.0936 and -0.331.
The corresponding values for “TNPO2_O14787_93_QECLNNIGDASSLIR (UniProt O14787)” are 0.282 and 0.058.
The corresponding values for “TOPORS_Q9NS56_49_HRPSFLGCR (UniProt Q9NS56)” are -0.0352 and -0.342.
As for “TOR1AIP1_Q5JTV8_496_YCDHENAAFK (UniProt Q5JTV8)”, the “probe-labelled cysteine peptide fold change” value (10 µM) was found to be 0.0922 and the “probe-labelled cysteine peptide fold change” value (50 µM) was 0.111.
As to “TMED4_Q7Z7H5_41_CFIEEIPDETMVIGNYR (UniProt Q7Z7H5)”, the “probe-labelled cysteine peptide fold change” value runs as follows: (10 µM) 0.0888; (50 µM) 0.283.
